Laboratory results reported in US20230365617A1, “SAPONIN DERIVATIVES FOR USE IN MEDICINE” (priority 2020, published 2023).
Some results were stated once for a whole list of compounds, not compound by compound. For at least one compound, name, drawing or mass did not settle the structure.

Test system: HeLa cells
Format: cell-based, human
Conditions: saponin alone, read-out: IC50 toxicity on HeLa cells
Method: (FIGS. 66A and 66B). Next toxicity was determined, for this the modified saponins were titrated on HeLa and A431 cells. […] Next toxicity was determined, for this the modified saponins were titrated on HeLa and A431 cells.

## CC(=O)OC1C(C)OC(OC2C(C)OC(OC(=O)[C@]34CCC(C)(C)CC3C3=CCC5[C@@]6(C)CC[C@H](OC7OC(C(=O)O)C(O)C(OC8OCC(O)C(O)C8O)C7OC7OC(CO)C(O)C(O)C7O)[C@@](C)(/C=N/NC(=O)CCCCCN7C(=O)C[C@H](SCCO)C7=O)C6CC[C@@]5(C)[C@]3(C)CC4O)C(OC3OC(C)C(OC4OCC(O)C(OC5OC(CO)C(O)C(O)C5O)C4O)C(O)C3O)C2O)C(O)C1OC1OCC(O)C(O)C1O (some centres unmarked) [SO1861-Ald-EMCH-blocked]
  IC50: > 100 µM

## CC(=O)OC1C(C)OC(OC2C(C)OC(OC(=O)[C@]34CCC(C)(C)CC3C3=CCC5[C@@]6(C)CC[C@H](OC7OC(C(=O)NCCN8C(=O)C=CC8=O)C(O)C(OC8OCC(O)C(O)C8O)C7OC7OC(CO)C(O)C(O)C7O)[C@@](C)(C=O)C6CC[C@@]5(C)[C@]3(C)C[C@H]4O)C(OC3OC(C)C(OC4OCC(O)C(OC5OC(CO)C(O)C(O)C5O)C4O)C(O)C3O)C2O)C(O)C1OC1OCC(O)C(O)C1O (some centres unmarked) [SO1861-Glu-AEM]
  IC50: > 100 µM
